Assay results from patent US20070054353A1, “Nuclear receptor transcriptional corepressor and uses thereof” (priority 2002, published 2007).
These are yes or no findings as the source states them, for the method shown. For some assays here: Binding seen in cells or lysates may run through a third protein. Some results given as binding are weak or reduced against the parent protein; the word gives no strength. For some assays here: Where a sequence is shown, tags or fusion partners need not be part of it. Blank lines part the entries; values can stand above or below the binder they belong to.

Sequences of proteins named here, by UniProt entry; tags and fusion partners are left off. A change or cut given only in a name is not applied to a line headed by its entry. Residues count along the entry.
UniProt O15379: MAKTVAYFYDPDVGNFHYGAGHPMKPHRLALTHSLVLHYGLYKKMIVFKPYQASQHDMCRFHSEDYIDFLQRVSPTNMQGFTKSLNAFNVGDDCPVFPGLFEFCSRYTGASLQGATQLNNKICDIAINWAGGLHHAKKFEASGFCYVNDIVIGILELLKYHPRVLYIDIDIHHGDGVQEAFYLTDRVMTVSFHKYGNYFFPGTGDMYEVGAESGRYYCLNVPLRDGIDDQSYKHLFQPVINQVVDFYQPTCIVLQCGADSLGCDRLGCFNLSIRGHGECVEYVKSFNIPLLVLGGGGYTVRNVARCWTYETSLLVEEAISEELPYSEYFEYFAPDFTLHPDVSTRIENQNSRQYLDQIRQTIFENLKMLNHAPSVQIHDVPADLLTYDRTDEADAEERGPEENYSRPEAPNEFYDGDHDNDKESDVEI
UniProt P03372: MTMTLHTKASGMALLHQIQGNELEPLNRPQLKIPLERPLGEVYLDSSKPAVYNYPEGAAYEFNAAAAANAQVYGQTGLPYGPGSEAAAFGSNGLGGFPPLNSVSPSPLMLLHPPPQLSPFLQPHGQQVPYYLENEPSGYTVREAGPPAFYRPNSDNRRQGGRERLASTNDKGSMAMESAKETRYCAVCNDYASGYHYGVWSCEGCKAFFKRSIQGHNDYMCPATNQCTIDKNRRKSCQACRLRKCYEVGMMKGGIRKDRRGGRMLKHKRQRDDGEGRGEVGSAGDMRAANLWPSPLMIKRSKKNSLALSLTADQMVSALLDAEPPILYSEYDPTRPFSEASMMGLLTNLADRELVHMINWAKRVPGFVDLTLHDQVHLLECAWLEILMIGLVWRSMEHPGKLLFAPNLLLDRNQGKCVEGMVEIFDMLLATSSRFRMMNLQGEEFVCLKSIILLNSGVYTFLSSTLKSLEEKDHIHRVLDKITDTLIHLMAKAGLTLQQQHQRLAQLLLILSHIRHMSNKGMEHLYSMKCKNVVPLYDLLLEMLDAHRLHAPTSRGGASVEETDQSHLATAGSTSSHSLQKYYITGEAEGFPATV
ERα-LBD bait (yeast two-hybrid): residues 282-595 of P03372
UniProt Q9UBN7: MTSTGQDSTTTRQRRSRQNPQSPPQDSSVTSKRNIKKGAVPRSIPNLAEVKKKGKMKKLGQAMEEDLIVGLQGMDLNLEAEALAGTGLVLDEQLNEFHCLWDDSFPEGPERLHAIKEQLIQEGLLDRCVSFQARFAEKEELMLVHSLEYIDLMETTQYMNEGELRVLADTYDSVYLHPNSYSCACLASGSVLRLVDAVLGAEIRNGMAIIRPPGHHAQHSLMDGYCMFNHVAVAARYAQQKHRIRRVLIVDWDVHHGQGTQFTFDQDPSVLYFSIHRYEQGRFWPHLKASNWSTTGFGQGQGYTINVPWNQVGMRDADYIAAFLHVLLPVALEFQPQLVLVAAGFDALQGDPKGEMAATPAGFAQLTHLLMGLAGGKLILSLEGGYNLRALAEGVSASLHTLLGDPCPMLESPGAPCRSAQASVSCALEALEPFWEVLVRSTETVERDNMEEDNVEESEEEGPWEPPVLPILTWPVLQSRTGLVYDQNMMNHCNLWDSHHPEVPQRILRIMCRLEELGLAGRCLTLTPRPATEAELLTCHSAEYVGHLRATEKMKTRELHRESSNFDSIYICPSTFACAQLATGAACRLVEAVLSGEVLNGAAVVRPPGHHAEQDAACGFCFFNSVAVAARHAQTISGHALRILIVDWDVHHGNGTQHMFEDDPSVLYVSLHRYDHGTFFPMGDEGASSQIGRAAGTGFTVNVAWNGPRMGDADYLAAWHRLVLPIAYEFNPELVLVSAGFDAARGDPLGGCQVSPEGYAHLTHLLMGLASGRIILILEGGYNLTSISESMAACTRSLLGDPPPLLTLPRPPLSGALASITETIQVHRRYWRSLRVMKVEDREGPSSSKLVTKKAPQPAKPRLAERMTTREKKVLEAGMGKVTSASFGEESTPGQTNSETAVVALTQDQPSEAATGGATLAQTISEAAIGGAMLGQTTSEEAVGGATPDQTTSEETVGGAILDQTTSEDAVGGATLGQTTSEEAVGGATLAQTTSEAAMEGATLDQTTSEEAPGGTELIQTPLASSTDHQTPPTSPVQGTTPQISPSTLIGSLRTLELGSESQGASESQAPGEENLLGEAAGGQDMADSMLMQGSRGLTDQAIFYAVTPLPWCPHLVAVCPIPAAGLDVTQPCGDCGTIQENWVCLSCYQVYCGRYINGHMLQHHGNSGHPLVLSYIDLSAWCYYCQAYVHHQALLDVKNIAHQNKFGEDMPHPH
UniProt Q92731, residues 248-530: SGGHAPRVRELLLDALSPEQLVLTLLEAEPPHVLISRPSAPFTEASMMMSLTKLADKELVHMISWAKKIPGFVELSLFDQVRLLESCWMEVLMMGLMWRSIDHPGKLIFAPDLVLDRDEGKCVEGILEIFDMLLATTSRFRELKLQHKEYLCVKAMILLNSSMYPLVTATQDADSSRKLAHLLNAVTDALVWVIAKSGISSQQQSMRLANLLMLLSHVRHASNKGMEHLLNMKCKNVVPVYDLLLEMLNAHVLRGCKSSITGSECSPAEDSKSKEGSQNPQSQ

What was measured:
[1] = molecular target: CtBP2 (C-terminal binding protein 2) (human) (UniProt P56545); experiment: coimmunoprecipitation with anti-CtBP antibody, transfected MCF-7 cells
[2] = molecular target: HDAC3 (human) (UniProt O15379); experiment: coimmunoprecipitation, MCF-7 extracts (identical results in HEK293 extracts)
[3] = molecular target: ERα (estrogen receptor α) (human) (UniProt P03372); experiment: coimmunoprecipitation with anti-ERα antibody, MCF-7 extracts
[4] = molecular target: HDAC6 (human) (UniProt Q9UBN7); experiment: coimmunoprecipitation with anti-HDAC6 antibody, MCF-7 extracts
[5] = molecular target: ERα-LBD bait (yeast two-hybrid) (UniProt P03372); experiment: yeast two-hybrid screen with ERα-LBD bait, 10^-6 M estradiol
[6] = molecular target: GST-ERα-LBD (UniProt P03372); experiment: GST pull-down
[7] = molecular target: HDAC3 (human) (UniProt O15379); experiment: coimmunoprecipitation with anti-HDAC3 antibody, MCF-7 extracts
[8] = molecular target: ERα (estrogen receptor α) (human) (UniProt P03372); experiment: coimmunoprecipitation
[9] = molecular target: CtBP2 (C-terminal binding protein 2) (human) (UniProt P56545); experiment: coimmunoprecipitation, MCF-7 extracts
[10] = molecular target: HDAC6 (human) (UniProt Q9UBN7); experiment: coimmunoprecipitation, MCF-7 extracts
[11] = molecular target: CtBP2 (C-terminal binding protein 2) (human) (UniProt P56545); experiment: coimmunoprecipitation with anti-CtBP antibody (recognizes CtBP1 and CtBP2), MCF-7 extracts
[12] = molecular target: ERα-LBD bait (yeast two-hybrid) (UniProt P03372); experiment: yeast two-hybrid
[13] = molecular target: CtBP2 (C-terminal binding protein 2) (human) (UniProt P56545); experiment: coimmunoprecipitation with antibody recognizing CtBP1 and CtBP2, MCF-7 extracts (precipitates mostly CtBP1; similar in HEK293)
[14] = molecular target: HA-HDAC3 (UniProt O15379); experiment: reciprocal coimmunoprecipitation, transfected COS-7 cells
[15] = molecular target: HA-HDAC3 (UniProt O15379); experiment: coimmunoprecipitation with anti-Flag antibody, transfected COS-7 cells
[16] = molecular target: HA-Flag-HDAC6 (UniProt Q9UBN7); experiment: as above
[17] = molecular target: HA-Flag-HDAC6 (UniProt Q9UBN7); experiment: coimmunoprecipitation, transfected COS-7 cells
[18] = molecular target: HDAC6 (human) (UniProt Q9UBN7); experiment: GST pull-down, in vitro translated HDAC
[19] = molecular target: HDAC3 (human) (UniProt O15379); experiment: GST pull-down, in vitro translated HDAC
[20] = molecular target: T1, VDR (UniProt P11473); experiment: GST pull-down (GST-LCoR by the legend of FIG. 4H)
T1 sequence (looked up): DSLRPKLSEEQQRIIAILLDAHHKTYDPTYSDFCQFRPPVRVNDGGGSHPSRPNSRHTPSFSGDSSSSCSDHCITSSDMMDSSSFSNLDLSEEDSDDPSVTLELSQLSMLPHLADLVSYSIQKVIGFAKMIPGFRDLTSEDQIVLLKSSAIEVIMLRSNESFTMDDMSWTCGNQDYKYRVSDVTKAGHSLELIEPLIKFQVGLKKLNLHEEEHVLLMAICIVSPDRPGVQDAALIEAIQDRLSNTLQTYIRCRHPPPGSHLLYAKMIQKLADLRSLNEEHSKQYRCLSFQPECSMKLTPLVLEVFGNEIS

[21] = molecular target: ERβ (UniProt Q92731); experiment: GST pull-down (GST-LCoR by the legend of FIG. 4G)

binding [1]: binds
B1: Flag-m2 (Flag-tagged LCoR mutated in CtBP binding site 2) (protein, not shown: small tags and cut ends)
chain: MQRMIQQFAAEYTSKNSSTQDPSQPNSTKNQSLPKASPVTTSPTAATTQNPVLSKLLMADQDSPLDLTVRKSQSEPSEQDGKSPCAGSTSLSHSPGCSSTQGNGRPGRPSQYRPDGLRSGDGVPPRSLQDGTREGFGHSTSLKVPLARSLQISEELLSRNQLSTAASLGPSGLQNHGQHLILSREASWAKPHYEFNLSRMKFRGNGALSNISDLPFLAENSAFPKMALQAKQDGKKDVSHSSPVDLKIPQVRGMDLSWESRTGDQYSYSSLVMGSQTESALSKKLRAILPKQSRKSMLDAGPDSWGSDAEQSTPGQPYPTSDQEGDPGSKQPRKKRGRYRQYNSEILEEAISVVMSGKMSVSKAQSIYGIPHSTLEYKVKERLGTLKNPPKKKMKLMRSEGPDVSVKIELDPQGEAAQSANESKNE

binding [2]: binds | binding [3]: binds | binding [4]: binds | binding [5]: binds | binding [6]: binds | binding [7]: binds | binding [8]: binds | binding [9]: binds | binding [10]: binds | binding [11]: binds | binding [12]: binds | binding [13]: binds
B2: LCoR (ligand-dependent corepressor) (protein)
chain: MQRMIQQFAAEYTSKNSSTQDPSQPNSTKNQSLPKASPVTTSPTAATTQNPVLSKLLMADQDSPLDLTVRKSQSEPSEQDGVLDLSTKKSPCAGSTSLSHSPGCSSTQGNGRPGRPSQYRPDGLRSGDGVPPRSLQDGTREGFGHSTSLKVPLARSLQISEELLSRNQLSTAASLGPSGLQNHGQHLILSREASWAKPHYEFNLSRMKFRGNGALSNISDLPFLAENSAFPKMALQAKQDGKKDVSHSSPVDLKIPQVRGMDLSWESRTGDQYSYSSLVMGSQTESALSKKLRAILPKQSRKSMLDAGPDSWGSDAEQSTPGQPYPTSDQEGDPGSKQPRKKRGRYRQYNSEILEEAISVVMSGKMSVSKAQSIYGIPHSTLEYKVKERLGTLKNPPKKKMKLMRSEGPDVSVKIELDPQGEAAQSANESKNE

binding [14]: binds | binding [1]: binds | binding [15]: binds
B3: Flag-LCoR (protein, not shown: small tags and cut ends)
chain: MQRMIQQFAAEYTSKNSSTQDPSQPNSTKNQSLPKASPVTTSPTAATTQNPVLSKLLMADQDSPLDLTVRKSQSEPSEQDGVLDLSTKKSPCAGSTSLSHSPGCSSTQGNGRPGRPSQYRPDGLRSGDGVPPRSLQDGTREGFGHSTSLKVPLARSLQISEELLSRNQLSTAASLGPSGLQNHGQHLILSREASWAKPHYEFNLSRMKFRGNGALSNISDLPFLAENSAFPKMALQAKQDGKKDVSHSSPVDLKIPQVRGMDLSWESRTGDQYSYSSLVMGSQTESALSKKLRAILPKQSRKSMLDAGPDSWGSDAEQSTPGQPYPTSDQEGDPGSKQPRKKRGRYRQYNSEILEEAISVVMSGKMSVSKAQSIYGIPHSTLEYKVKERLGTLKNPPKKKMKLMRSEGPDVSVKIELDPQGEAAQSANESKNE

binding [16]: binds | binding [17]: binds
B4: HA-LCoR-LSKAA (protein, not shown: small tags and cut ends)
chain: MQRMIQQFAAEYTSKNSSTQDPSQPNSTKNQSLPKASPVTTSPTAATTQNPVLSKAAMADQDSPLDLTVRKSQSEPSEQDGVLDLSTKKSPCAGSTSLSHSPGCSSTQGNGRPGRPSQYRPDGLRSGDGVPPRSLQDGTREGFGHSTSLKVPLARSLQISEELLSRNQLSTAASLGPSGLQNHGQHLILSREASWAKPHYEFNLSRMKFRGNGALSNISDLPFLAENSAFPKMALQAKQDGKKDVSHSSPVDLKIPQVRGMDLSWESRTGDQYSYSSLVMGSQTESALSKKLRAILPKQSRKSMLDAGPDSWGSDAEQSTPGQPYPTSDQEGDPGSKQPRKKRGRYRQYNSEILEEAISVVMSGKMSVSKAQSIYGIPHSTLEYKVKERLGTLKNPPKKKMKLMRSEGPDVSVKIELDPQGEAAQSANESKNE

binding [18]: binds | binding [19]: binds | binding [20]: binds | binding [21]: binds
B5: GST-LCoR (protein, not shown: a dimerising Fc or GST)
chain: MQRMIQQFAAEYTSKNSSTQDPSQPNSTKNQSLPKASPVTTSPTAATTQNPVLSKLLMADQDSPLDLTVRKSQSEPSEQDGVLDLSTKKSPCAGSTSLSHSPGCSSTQGNGRPGRPSQYRPDGLRSGDGVPPRSLQDGTREGFGHSTSLKVPLARSLQISEELLSRNQLSTAASLGPSGLQNHGQHLILSREASWAKPHYEFNLSRMKFRGNGALSNISDLPFLAENSAFPKMALQAKQDGKKDVSHSSPVDLKIPQVRGMDLSWESRTGDQYSYSSLVMGSQTESALSKKLRAILPKQSRKSMLDAGPDSWGSDAEQSTPGQPYPTSDQEGDPGSKQPRKKRGRYRQYNSEILEEAISVVMSGKMSVSKAQSIYGIPHSTLEYKVKERLGTLKNPPKKKMKLMRSEGPDVSVKIELDPQGEAAQSANESKNE

binding [16]: binds | binding [17]: binds
B6: HA-LCoR (protein, not shown: small tags and cut ends)
chain: MQRMIQQFAAEYTSKNSSTQDPSQPNSTKNQSLPKASPVTTSPTAATTQNPVLSKLLMADQDSPLDLTVRKSQSEPSEQDGVLDLSTKKSPCAGSTSLSHSPGCSSTQGNGRPGRPSQYRPDGLRSGDGVPPRSLQDGTREGFGHSTSLKVPLARSLQISEELLSRNQLSTAASLGPSGLQNHGQHLILSREASWAKPHYEFNLSRMKFRGNGALSNISDLPFLAENSAFPKMALQAKQDGKKDVSHSSPVDLKIPQVRGMDLSWESRTGDQYSYSSLVMGSQTESALSKKLRAILPKQSRKSMLDAGPDSWGSDAEQSTPGQPYPTSDQEGDPGSKQPRKKRGRYRQYNSEILEEAISVVMSGKMSVSKAQSIYGIPHSTLEYKVKERLGTLKNPPKKKMKLMRSEGPDVSVKIELDPQGEAAQSANESKNE

binding [14]: binds | binding [15]: binds
B7: Flag-LSKAA (protein, not shown: small tags and cut ends)
chain: MQRMIQQFAAEYTSKNSSTQDPSQPNSTKNQSLPKASPVTTSPTAATTQNPVLSKAAMADQDSPLDLTVRKSQSEPSEQDGVLDLSTKKSPCAGSTSLSHSPGCSSTQGNGRPGRPSQYRPDGLRSGDGVPPRSLQDGTREGFGHSTSLKVPLARSLQISEELLSRNQLSTAASLGPSGLQNHGQHLILSREASWAKPHYEFNLSRMKFRGNGALSNISDLPFLAENSAFPKMALQAKQDGKKDVSHSSPVDLKIPQVRGMDLSWESRTGDQYSYSSLVMGSQTESALSKKLRAILPKQSRKSMLDAGPDSWGSDAEQSTPGQPYPTSDQEGDPGSKQPRKKRGRYRQYNSEILEEAISVVMSGKMSVSKAQSIYGIPHSTLEYKVKERLGTLKNPPKKKMKLMRSEGPDVSVKIELDPQGEAAQSANESKNE

binding [18]: binds | binding [19]: binds
B8: GST-LSKAA (protein, not shown: a dimerising Fc or GST)
chain: MQRMIQQFAAEYTSKNSSTQDPSQPNSTKNQSLPKASPVTTSPTAATTQNPVLSKAAMADQDSPLDLTVRKSQSEPSEQDGVLDLSTKKSPCAGSTSLSHSPGCSSTQGNGRPGRPSQYRPDGLRSGDGVPPRSLQDGTREGFGHSTSLKVPLARSLQISEELLSRNQLSTAASLGPSGLQNHGQHLILSREASWAKPHYEFNLSRMKFRGNGALSNISDLPFLAENSAFPKMALQAKQDGKKDVSHSSPVDLKIPQVRGMDLSWESRTGDQYSYSSLVMGSQTESALSKKLRAILPKQSRKSMLDAGPDSWGSDAEQSTPGQPYPTSDQEGDPGSKQPRKKRGRYRQYNSEILEEAISVVMSGKMSVSKAQSIYGIPHSTLEYKVKERLGTLKNPPKKKMKLMRSEGPDVSVKIELDPQGEAAQSANESKNE

binding [1]: binds
B9: Flag-m1 (Flag-tagged LCoR mutated in CtBP binding site 1) (protein, not shown: small tags and cut ends)
chain: MQRMIQQFAAEYTSKNSSTQDPSQPNSTKNQSLPKASPVTTSPTAATTQNPVLSKLLMADQDSKSQSEPSEQDGVLDLSTKKSPCAGSTSLSHSPGCSSTQGNGRPGRPSQYRPDGLRSGDGVPPRSLQDGTREGFGHSTSLKVPLARSLQISEELLSRNQLSTAASLGPSGLQNHGQHLILSREASWAKPHYEFNLSRMKFRGNGALSNISDLPFLAENSAFPKMALQAKQDGKKDVSHSSPVDLKIPQVRGMDLSWESRTGDQYSYSSLVMGSQTESALSKKLRAILPKQSRKSMLDAGPDSWGSDAEQSTPGQPYPTSDQEGDPGSKQPRKKRGRYRQYNSEILEEAISVVMSGKMSVSKAQSIYGIPHSTLEYKVKERLGTLKNPPKKKMKLMRSEGPDVSVKIELDPQGEAAQSANESKNE
